# Source: ChEMBL document CHEMBL3414445, “Blood-brain barrier permeable anticholinesterase aurones: synthesis, structure-activity relationship, and drug-like properties” (Eur J Med Chem, 2015)
# How the values were obtained:
# in vitro [1] = settings: PAMPA, pH 7.4
# in vitro [2] = settings: PAMPA
smiles,measurement,setting,value
COc1cc2c(cc1OC)C(=O)C(CC1CCN(Cc3ccccc3)CC1)C2 (configuration not stated) [DONEPEZIL],Papp,in vitro [1],28.3 ×10⁻⁶ cm/s
same,Papp,in vitro [2],12 ×10⁻⁶ cm/s
